# Source: PubChem BioAssay AID901 (National Center for Advancing Translational Sciences (NCATS), 2007)
# The other results are listed elsewhere or left out. The main result of the screen is listed elsewhere. These columns were measured beside it and carry no call. Compounds called inactive in the main read-out are mostly missing here. The note in brackets gives the kind of curve behind each potency; many fits are weak.
# Test: qHTS Assay for Identifying the Cell-Membrane Permeable IMPase Inhibitors
# Settings: CHO-M1 cells, IP1 accumulation, HTRF TR-FRET ratio; measured here: donor channel 620 nm AC50
row,SMILES,AC50
1,O=C(CSc1nnc(-c2cccs2)o1)c1cccs1,"20000 nM [falling, partial curve, poor fit]"
2,O=C(Cn1c(=O)n(Cc2ccc3c(c2)OCO3)c(=O)c2ccccc21)N1CCCc2ccccc21,"31600 nM [falling, single point]"
3,CCOC(=O)c1csc(Nc2nc3ccc(F)cc3s2)n1,"3160 nM [rising, single point]"
4,O=c1cc(CN2CCC3(CC2)OCCO3)c2c(ccc3ccccc32)o1,"794 nM [falling, single point]"
5,CC(C)C(NS(=O)(=O)c1cccs1)C(=O)N(C)Cc1ccccc1 (stereo not drawn),"12600 nM [falling, partial curve, poor fit]"
6,COc1ccc(C(=O)Nc2cc(NC(=O)c3ccco3)ccc2OC)cc1Cl,"5.01 nM [falling, full curve]"
7,Cc1nc(NC(=O)c2cccnc2)ccc1Br,"1000 nM [falling, full curve, poor fit]"
8,COc1ccc(C(=O)CSc2nnc(-c3ccc(S(=O)(=O)N4CCOCC4)cc3)o2)cc1,"31600 nM [falling, single point]"
9,C/C(=C\c1ccccc1)CN(C)CCN(C)C,"63.1 nM [rising, full curve, poor fit]"
10,Cc1cc(C)n(C/C=C/Cn2nc(C)cc2C)n1,"355 nM [rising, partial curve, poor fit]"
11,Cc1cccc(C(=O)NCC2CCCO2)c1 (stereo not drawn),"35500 nM [rising, partial curve]"
12,O=C(Nc1cccnc1)Nc1ccccn1,"35500 nM [falling, single point]"
13,CCCOC(=O)C1[C@H]2C(=O)N(CC3CCCO3)C[C@]23C=C[C@H]1O3 (stereo partly drawn),"63.1 nM [rising, full curve, poor fit]"
14,COc1ccc(S(=O)(=O)Nc2ccccn2)c(C)c1C,"12600 nM [falling, partial curve, poor fit]"
15,Cc1cc(C(F)F)n2nc(C(=O)Nc3cccc(Cl)c3C)nc2n1,"5620 nM [falling, full curve]"
16,O=Nc1c2nc3ccccc3n(O)c-2c2ccccc12,"158 nM [falling, partial curve]"
17,Cc1nc2ccccc2n2c(-c3ccccc3)c3c(=O)n(C)c(=O)n(C)c3c12,"12600 nM [falling, partial curve, poor fit]"
18,COc1cccc(NC(=O)COc2ccc(S(=O)(=O)NC(C)C)cc2)c1,"158 nM [falling, full curve]"
19,CCOc1ccc(-n2c(=O)c3c(C)c(C)sc3n(CC(=O)NCc3ccco3)c2=O)cc1,"1580 nM [rising, full curve, poor fit]"
20,CCOc1cc(C2CC(=O)Nc3cc4c(cc32)OCCO4)ccc1O (stereo not drawn),"2.24 nM [rising, full curve, poor fit]"
21,N#Cc1c(-n2cccc2)cccc1-n1cccc1,"2510 nM [rising, full curve, poor fit]"
22,CCOc1ccccc1CNC(=O)C1CCN(c2nc3ccccc3o2)CC1,"3160 nM [rising, full curve]"

# 3 entries out of the list, ordered by count of non-hydrogen atoms, smallest number first.
row,SMILES,AC50
7,Cc1nc(NC(=O)c2cccnc2)ccc1Br,"1000 nM [falling, full curve, poor fit]"
21,N#Cc1c(-n2cccc2)cccc1-n1cccc1,"2510 nM [rising, full curve, poor fit]"
18,COc1cccc(NC(=O)COc2ccc(S(=O)(=O)NC(C)C)cc2)c1,"158 nM [falling, full curve]"

# Next results.

row,SMILES,AC50
1,O=C(O)CCCC(=O)Nc1ccccc1Br,"5010 nM [falling, single point]"
2,CN1CCC(N(C)C(=O)c2ccccc2Nc2ccc(SC(F)F)cc2)CC1,"1580 nM [rising, partial curve, poor fit]"
3,CCOC(=O)C1CCN(C2CC(=O)N(c3ccc(OCC)cc3)C2=O)CC1 (stereo not drawn),"631 nM [falling, full curve]"
4,CCOC(=O)c1c(C)nc(-c2ccccc2)nc1NC(=O)CC,"316 nM [falling, full curve]"
5,Cc1cc2cc3c(cc2nc1SCC(=O)O)OCCO3,"12600 nM [rising, single point]"
6,CC(NC(=O)N(Cc1ccccc1)Cc1ccc2c(c1)OCO2)(C(F)(F)F)C(F)(F)F,"3980 nM [falling, partial curve]"
7,Cc1ccc(OCC(=O)Nc2ccc(-c3nc4ccccc4o3)cc2)c(C)c1,"31600 nM [rising, single point]"
8,COc1cc2c(cc1NC(=O)C(C)Oc1ccccc1)oc1ccccc12 (stereo not drawn),"4.47 nM [falling, full curve, poor fit]"
9,Cn1cccc1C(=O)Nc1nccs1,"10 nM [rising, full curve, poor fit]"
10,CC1(C)Cc2cccc(OCC(=O)N3CCN(S(=O)(=O)c4ccc(F)cc4)CC3)c2O1,"501 nM [rising, full curve, poor fit]"
11,CCOc1cc(/C=C\c2[nH]c(=O)[nH]c(=O)c2[N+](=O)[O-])ccc1OC(C)CC (stereo not drawn),"126 nM [falling, full curve, poor fit]"
12,CCn1cc(CNC(=O)c2cc(Cl)ccc2OC)c(C)n1,"31600 nM [falling, single point]"
13,Cc1ccc(Cn2c(N)c(S(=O)(=O)c3cccs3)c3nc4ccccc4nc32)cc1,"31600 nM [rising, partial curve, poor fit]"
14,Cc1cccc(-n2c(SCC(=O)N3CCCC3)nc3n[nH]c(C)c3c2=N)c1,"25100 nM [rising, single point]"
15,C=C(C)Cn1c(C)cc(C)c(S(=O)(=O)c2ccccc2C)c1=O,"63.1 nM [rising, full curve, poor fit]"
16,Cc1nn(C)c(C)c1C1Nc2ccccc2C(=O)N1O (stereo not drawn),"794 nM [falling, full curve]"
17,Cc1cccc(NC(=O)C2CC(O)CN2C(=O)OCc2ccccc2)c1 (stereo not drawn),"2000 nM [falling, partial curve]"
18,COc1cnn(-c2ccccc2)c(=O)c1SCc1ccc(Cl)c(Cl)c1,"3160 nM [rising, full curve]"
19,COc1ccc(NC(C)=O)cc1NC(=O)CSc1nnc(-c2cccnc2)n1C,"2510 nM [rising, partial curve]"
20,O=C(c1ccncc1)N(Cc1ccccc1)Cc1nc2ccccc2c(=O)[nH]1,"1120 nM [falling, full curve, poor fit]"
21,COc1ccc(C(=O)N2CCCC(c3nc(-c4cccs4)no3)C2)cc1OC (stereo not drawn),"10 nM [rising, full curve, poor fit]"
